# ± gives the standard deviation of the averaged measurements. Some of the results follow. The list holds hits alone, and they repeat only in part.
# Sequences of proteins named here, by UniProt entry; tags and fusion partners are left off.
# MORF4L1, Q9UBU8, UniProt Q9UBU8, whole entry: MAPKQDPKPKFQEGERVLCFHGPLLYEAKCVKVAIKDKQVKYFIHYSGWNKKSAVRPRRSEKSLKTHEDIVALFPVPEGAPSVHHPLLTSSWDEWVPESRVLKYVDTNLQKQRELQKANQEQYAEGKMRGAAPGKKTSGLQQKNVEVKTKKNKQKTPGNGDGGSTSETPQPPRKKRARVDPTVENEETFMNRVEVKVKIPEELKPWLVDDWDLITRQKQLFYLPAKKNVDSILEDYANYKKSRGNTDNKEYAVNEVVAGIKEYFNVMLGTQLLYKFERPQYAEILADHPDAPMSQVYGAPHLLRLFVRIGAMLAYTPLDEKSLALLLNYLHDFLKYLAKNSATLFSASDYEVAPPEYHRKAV
# MORF4L2, Q15014, UniProt Q15014, whole entry: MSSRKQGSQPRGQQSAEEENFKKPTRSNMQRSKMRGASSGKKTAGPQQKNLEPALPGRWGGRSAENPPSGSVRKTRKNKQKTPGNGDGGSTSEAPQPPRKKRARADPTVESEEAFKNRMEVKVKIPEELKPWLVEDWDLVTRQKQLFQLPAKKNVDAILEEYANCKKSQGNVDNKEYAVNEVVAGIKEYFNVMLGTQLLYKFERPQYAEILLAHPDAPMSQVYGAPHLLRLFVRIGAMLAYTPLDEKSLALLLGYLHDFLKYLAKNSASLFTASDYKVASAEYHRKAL
# MPG, P29372, UniProt P29372, whole entry: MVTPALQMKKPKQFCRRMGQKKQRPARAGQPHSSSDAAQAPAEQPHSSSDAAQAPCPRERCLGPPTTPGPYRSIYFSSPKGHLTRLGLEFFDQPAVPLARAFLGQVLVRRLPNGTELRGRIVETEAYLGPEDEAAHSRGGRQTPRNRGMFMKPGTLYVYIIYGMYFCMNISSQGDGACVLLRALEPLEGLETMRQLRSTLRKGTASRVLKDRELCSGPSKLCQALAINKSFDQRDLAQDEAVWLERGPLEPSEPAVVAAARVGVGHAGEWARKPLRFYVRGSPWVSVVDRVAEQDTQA
# PIN4, Q9Y237, UniProt Q9Y237, whole entry: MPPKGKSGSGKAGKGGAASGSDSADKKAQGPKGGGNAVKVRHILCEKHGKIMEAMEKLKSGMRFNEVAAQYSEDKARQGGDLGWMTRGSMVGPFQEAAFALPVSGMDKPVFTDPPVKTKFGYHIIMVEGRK
# PLK1, P53350, UniProt P53350, whole entry: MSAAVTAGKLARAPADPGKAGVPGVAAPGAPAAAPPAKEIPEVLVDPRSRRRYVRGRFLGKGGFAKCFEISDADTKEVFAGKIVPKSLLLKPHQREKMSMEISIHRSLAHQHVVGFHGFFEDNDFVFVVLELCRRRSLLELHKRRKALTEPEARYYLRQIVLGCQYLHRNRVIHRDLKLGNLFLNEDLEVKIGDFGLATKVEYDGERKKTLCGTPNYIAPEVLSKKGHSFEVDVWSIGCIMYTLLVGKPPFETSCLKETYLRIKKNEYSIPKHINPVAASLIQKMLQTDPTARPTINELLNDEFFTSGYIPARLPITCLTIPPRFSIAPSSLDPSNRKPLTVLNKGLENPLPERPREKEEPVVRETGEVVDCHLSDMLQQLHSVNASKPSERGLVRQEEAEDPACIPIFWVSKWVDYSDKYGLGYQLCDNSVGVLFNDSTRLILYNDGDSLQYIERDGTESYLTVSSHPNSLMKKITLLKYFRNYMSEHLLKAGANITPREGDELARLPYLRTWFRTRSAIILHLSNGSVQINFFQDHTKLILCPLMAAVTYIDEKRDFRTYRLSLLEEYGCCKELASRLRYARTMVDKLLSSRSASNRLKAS
# Columns and labels:
# Assay in all cases: PRISMA enrichment of interactor (LFQ) in peptide spot vs all other peptide spots (log2 fold change); higher = stronger / more specific binding of the interactor to the peptide
# MAP7D1, Q3KQU3 = biological target: MAP7D1, Q3KQU3
# Method: (§1)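 PRISMA: 221 full-length sORF-encoded peptides (3-15 aa), plus SOS1/GLUT1 control peptides, were spot-synthesized on cellulose membranes in triplicate. Membranes were incubated with HEK293T lysate, and bound proteins were identified by LC-MS/MS with LFQ. Enrichment is the log2 fold change versus all other peptide spots; only significant interactors are listed (cutoff c=6, x0=2.8).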
# MAZ, P56270 = biological target: MAZ, P56270
# Method: as §1
# MORF4L1, Q9UBU8 = biological target: MORF4L1, Q9UBU8
# Method: as §1
# MORF4L2, Q15014 = biological target: MORF4L2, Q15014
# Method: as §1
# MPG, P29372 = biological target: MPG, P29372
# Method: as §1
# NIFK, Q9BYG3 = biological target: NIFK, Q9BYG3
# Method: as §1
# NME4, O00746 = biological target: NME4, O00746
# Method: as §1
# [1] = substrate: NONO, Q15233
# Method: as §1
# [2] = substrate: NOSIP, Q9Y314
# Method: as §1
# NSA2, O95478 = biological target: NSA2, O95478
# Method: as §1
# NTHL1, P78549 = biological target: NTHL1, P78549
# Method: as §1
# NUDT16L1, Q9BRJ7 = biological target: NUDT16L1, Q9BRJ7
# Method: as §1
# NUSAP1, Q9BXS6 = biological target: NUSAP1, Q9BXS6
# Method: as §1
# NXF1, Q9UBU9 = biological target: NXF1, Q9UBU9
# Method: as §1
# PAK4, O96013 = biological target: PAK4, O96013
# Method: as §1
# PIN4, Q9Y237 = biological target: PIN4, Q9Y237
# Method: as §1
# PLK1, P53350 = biological target: PLK1, P53350
# Method: as §1
# POLRMT, O00411 = biological target: POLRMT, O00411
# Method: as §1
# PPIL2, Q13356 = biological target: PPIL2, Q13356
# Method: as §1
# PRRC2A, P48634 = biological target: PRRC2A, P48634
# Method: as §1
# PSPC1, Q8WXF1 = biological target: PSPC1, Q8WXF1
# Method: as §1
# PSRC1, Q6PGN9 = biological target: PSRC1, Q6PGN9
# Method: as §1
# PUM3, Q15397 = biological target: PUM3, Q15397
# Method: as §1
# PUSL1, Q8N0Z8 = biological target: PUSL1, Q8N0Z8
# Method: as §1
# PYCR1, P32322 = biological target: PYCR1, P32322
# Method: as §1
# PYCR2, Q96C36 = biological target: PYCR2, Q96C36
# Method: as §1
# RBM33, Q96EV2 = biological target: RBM33, Q96EV2
# Method: as §1
# RBMX, P38159 = biological target: RBMX, P38159
# Method: as §1
# REPIN1, Q9BWE0 = biological target: REPIN1, Q9BWE0
# Method: as §1
# RPS19BP1, Q86WX3 = biological target: RPS19BP1, Q86WX3
# Method: as §1
# RPUSD3, Q6P087 = biological target: RPUSD3, Q6P087
# Method: as §1
# SAFB, Q15424 = biological target: SAFB, Q15424
# Method: as §1
# SAFB2, Q14151 = biological target: SAFB2, Q14151
# Method: as §1
# SERF2, P84101 = biological target: SERF2, P84101
# Method: as §1
# SFPQ, P23246 = biological target: SFPQ, P23246
# Method: as §1
# SLTM, Q9NWH9 = biological target: SLTM, Q9NWH9
# Method: as §1
# SND1, Q7KZF4 = biological target: SND1, Q7KZF4
# Method: as §1
# SPTY2D1, Q68D10 = biological target: SPTY2D1, Q68D10
# Method: as §1
# TBC1D4, O60343 = biological target: TBC1D4, O60343
# Method: as §1
# TBL2, Q9Y4P3 = biological target: TBL2, Q9Y4P3
# Method: as §1
# THYN1, Q9P016 = biological target: THYN1, Q9P016
# Method: as §1
# TMA16, Q96EY4 = biological target: TMA16, Q96EY4
# Method: as §1
# UTP11, Q9Y3A2 = biological target: UTP11, Q9Y3A2
# Method: as §1
# UTP15, Q8TED0 = biological target: UTP15, Q8TED0
# Method: as §1
# ZC2HC1A, Q96GY0 = biological target: ZC2HC1A, Q96GY0
# Method: as §1
# ZC3HAV1L, Q96H79 = biological target: ZC3HAV1L, Q96H79
# Method: as §1
# ZNF22, P17026 = biological target: ZNF22, P17026
# Method: as §1
# ZNF512, Q96ME7 = biological target: ZNF512, Q96ME7
# Method: as §1
# ZNF706, Q9Y5V0 = biological target: ZNF706, Q9Y5V0
# Method: as §1
# ZNF768, Q9H5H4 = biological target: ZNF768, Q9H5H4
# Method: as §1
binder,measurement,setting,value
MAEAGDFW [INSIG2],PRISMA enrichment of interactor (log2),"MAP7D1, Q3KQU3",4.6
same,PRISMA enrichment of interactor (log2),"MAZ, P56270",6.27 ± 1.5
same,PRISMA enrichment of interactor (log2),"MORF4L1, Q9UBU8",6.55
same,PRISMA enrichment of interactor (log2),"MORF4L2, Q15014",8.69
same,PRISMA enrichment of interactor (log2),"MPG, P29372",7.66
same,PRISMA enrichment of interactor (log2),"NIFK, Q9BYG3",4.86
same,PRISMA enrichment of interactor (log2),"NME4, O00746",6.38
same,PRISMA enrichment of interactor (log2),[1],6.44
same,PRISMA enrichment of interactor (log2),[2],4.62
same,PRISMA enrichment of interactor (log2),"NSA2, O95478",4.85
same,PRISMA enrichment of interactor (log2),"NTHL1, P78549",6.13
same,PRISMA enrichment of interactor (log2),"NUDT16L1, Q9BRJ7",6.44
same,PRISMA enrichment of interactor (log2),"NUSAP1, Q9BXS6",6.22
same,PRISMA enrichment of interactor (log2),"NXF1, Q9UBU9",5.11
same,PRISMA enrichment of interactor (log2),"PAK4, O96013",4.34
same,PRISMA enrichment of interactor (log2),"PIN4, Q9Y237",6.52
same,PRISMA enrichment of interactor (log2),"PLK1, P53350",8.18
same,PRISMA enrichment of interactor (log2),"POLRMT, O00411",5.91
same,PRISMA enrichment of interactor (log2),"PPIL2, Q13356",6.85
same,PRISMA enrichment of interactor (log2),"PRRC2A, P48634",4.96
same,PRISMA enrichment of interactor (log2),"PSPC1, Q8WXF1",6.07
same,PRISMA enrichment of interactor (log2),"PSRC1, Q6PGN9",5.64
same,PRISMA enrichment of interactor (log2),"PUM3, Q15397",4.58
same,PRISMA enrichment of interactor (log2),"PUSL1, Q8N0Z8",4.66
same,PRISMA enrichment of interactor (log2),"PYCR1, P32322",5.98
same,PRISMA enrichment of interactor (log2),"PYCR2, Q96C36",6.31
same,PRISMA enrichment of interactor (log2),"RBM33, Q96EV2",5.98
same,PRISMA enrichment of interactor (log2),"RBMX, P38159",5.89
same,PRISMA enrichment of interactor (log2),"REPIN1, Q9BWE0",4.35
same,PRISMA enrichment of interactor (log2),"RPS19BP1, Q86WX3",4.95
same,PRISMA enrichment of interactor (log2),"RPUSD3, Q6P087",6.68
same,PRISMA enrichment of interactor (log2),"SAFB, Q15424",6.5
same,PRISMA enrichment of interactor (log2),"SAFB2, Q14151",5.91
same,PRISMA enrichment of interactor (log2),"SERF2, P84101",7
same,PRISMA enrichment of interactor (log2),"SFPQ, P23246",6.33
same,PRISMA enrichment of interactor (log2),"SLTM, Q9NWH9",6.67
same,PRISMA enrichment of interactor (log2),"SND1, Q7KZF4",5.24
same,PRISMA enrichment of interactor (log2),"SPTY2D1, Q68D10",4.67
same,PRISMA enrichment of interactor (log2),"TBC1D4, O60343",7.47
same,PRISMA enrichment of interactor (log2),"TBL2, Q9Y4P3",5.51
same,PRISMA enrichment of interactor (log2),"THYN1, Q9P016",4.96
same,PRISMA enrichment of interactor (log2),"TMA16, Q96EY4",5.05
same,PRISMA enrichment of interactor (log2),"UTP11, Q9Y3A2",4.7
same,PRISMA enrichment of interactor (log2),"UTP15, Q8TED0",5.11
same,PRISMA enrichment of interactor (log2),"ZC2HC1A, Q96GY0",5.97
same,PRISMA enrichment of interactor (log2),"ZC3HAV1L, Q96H79",4.28
same,PRISMA enrichment of interactor (log2),"ZNF22, P17026",5.65
same,PRISMA enrichment of interactor (log2),"ZNF512, Q96ME7",6.34
same,PRISMA enrichment of interactor (log2),"ZNF706, Q9Y5V0",4.98
same,PRISMA enrichment of interactor (log2),"ZNF768, Q9H5H4",8.02

# Reformatted: entries from further up.
binder | measurement | setting | value
MAEAGDFW [INSIG2] | PRISMA enrichment of interactor (log2) | MAZ, P56270 | 6.27 ± 1.5
same | PRISMA enrichment of interactor (log2) | NIFK, Q9BYG3 | 4.86
same | PRISMA enrichment of interactor (log2) | NME4, O00746 | 6.38
same | PRISMA enrichment of interactor (log2) | [1] | 6.44
same | PRISMA enrichment of interactor (log2) | PRRC2A, P48634 | 4.96
same | PRISMA enrichment of interactor (log2) | REPIN1, Q9BWE0 | 4.35
same | PRISMA enrichment of interactor (log2) | SERF2, P84101 | 7
same | PRISMA enrichment of interactor (log2) | SND1, Q7KZF4 | 5.24
same | PRISMA enrichment of interactor (log2) | TBC1D4, O60343 | 7.47
same | PRISMA enrichment of interactor (log2) | ZNF706, Q9Y5V0 | 4.98
